The values below come from PubChem BioAssay AID320 (DTP/NCI, 2004).

The test system of this assay is BDF1 mice, P329 reticulum cell sarcoma ip, survival T/C. The experiment in a line: NCI In Vivo Anticancer Drug Screen. Data for tumor model P329 Reticulum Cell Sarcoma (intraperitoneal) in B6D2F1 (BDF1) mice. The note with it: T/C endpoint: median survival time, schedule: Q01DX010 (ip), vehicle: saline, higher T/C = longer survival. As for the experimental part:
The antitumor activity of compounds was measured in mice bearing transplantable tumors. Survival or tumor size were measured and the results are expressed as the measurement made in the treated group (T) divided by the measurement made in the vehicle treated control group (C). The tumor model used in this assay is P329 Reticulum Cell Sarcoma (intraperitoneal) in B6D2F1 (BDF1) mice

Each structure is given as a SMILES string. The list is a part of this screen's results and no random one: it gathers some chemical classes. Other doses and runs of a compound may be missing. T/C is the treated group as % of the vehicle group. Where survival is the endpoint, this PubChem deposit counts one and a half times the control or more as active, and values a quarter to a half above the control carry no call in these data; other NCI protocols may use other cut-offs. Some entries show no survivor count and are marked so; the dose need not have been tolerated. Schedule codes are those of the source, taken here to give the interval after Q, in days (D) or hours (H), and the number of doses after X. Some entries hold several experiments; the results are listed from low to high.

Consider `CC(C(=O)O)N(CCCl)CCCl` (configuration not stated), for which the T/C (dose: 0.5 mg/kg/injection) is 121 [survivor count not shown] and 128 % of control [survivor count not shown]; the T/C (dose: 1.0 mg/kg/injection) was 135 [survivor count not shown] and 167 % of control [survivor count not shown]; the T/C (dose: 2.0 mg/kg/injection) was 153 [survivor count not shown] and 167 % of control [survivor count not shown]; the T/C (dose: 4.0 mg/kg/injection) is 146 % of control [survivor count not shown].

As for `ClCCNCCCl`, the T/C was 114 [survivor count not shown] and 119 % of control [survivor count not shown] (dose: 18.8 mg/kg/injection); 139 [survivor count not shown] and 146 % of control [survivor count not shown] (dose: 37.5 mg/kg/injection).

For `ClCCN(CCCl)Cc1nc2ccccc2[nH]1`, the T/C reads like this: (dose: 1.25 mg/kg/injection) 111 % of control [survivor count not shown]; (dose: 2.5 mg/kg/injection) 126 [survivor count not shown] and 137 % of control [survivor count not shown]; (dose: 5.0 mg/kg/injection) 140 [survivor count not shown] and 146 % of control [survivor count not shown]; (dose: 10.0 mg/kg/injection) 107 [survivor count not shown] and 159 % of control [survivor count not shown].

In the case of `NC(Cc1cccc(N(CCCl)CCCl)c1)C(=O)O` (configuration not stated), the T/C (dose: 0.31 mg/kg/injection) was 123 % of control [survivor count not shown]; the T/C (dose: 0.63 mg/kg/injection) is 123 [survivor count not shown] and 136 % of control [survivor count not shown]; the T/C (dose: 1.25 mg/kg/injection) was 138 [survivor count not shown] and 146 % of control [survivor count not shown]; the T/C (dose: 2.5 mg/kg/injection) is 90 [survivor count not shown] and 176 % of control [survivor count not shown].

Take `O=C(O)CN(CCCl)CCCl`: the T/C is 121 [survivor count not shown] and 142 % of control [survivor count not shown] (dose: 0.63 mg/kg/injection); 128 [survivor count not shown] and 139 % of control [survivor count not shown] (dose: 1.25 mg/kg/injection); 142 [survivor count not shown] and 146 % of control [survivor count not shown] (dose: 2.5 mg/kg/injection).
